Several values for one entry are separate records, joined by “and”; a condition that tells them apart may be missing. Identical values can stand only once. The list shows a part of the results. Further columns of the screen follow, without active or inactive calls. For some of these results: Compounds called inactive in the main read-out are mostly missing here. For some of these results: The note in brackets gives the kind of curve behind each potency; many fits are weak.
Experiments:
[1] = qHTS assay for small molecule antagonists of peroxisome proliferator-activated receptor gamma signaling (AID 588537); conditions: HEK293 PPARg-UAS-bla, beta-lactamase ratio, antagonist mode; measured here: W460 blue channel
Procedure, shortened: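 Compounds are tested as concentration series for inhibition of rosiglitazone-driven (50 nM) reporter expression in GeneBLAzer PPAR-gamma-UAS-bla HEK293 cells. After 16 h at 37 C, CCF4 substrate is added for 2 h at room temperature and blue/green fluorescence is measured.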

[2] = qHTS assay for small molecule antagonists of retinoid X receptor alpha signaling (AID 588546); conditions: HEK293T RXRa-UAS-bla, beta-lactamase ratio, antagonist mode; measured here: W530 green channel, cytotoxicity proxy;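 also: cells stimulated with 9-cis-retinoic acid as agonist; % is scaled to controls: 0 for no effect and ±100 for the full control effect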
Procedure, shortened: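 Beta-lactamase reporter inhibition, read as CCF4 fluorescence ratio (ex 405, em 460/530 nm) after 2 h at RT. HEK293T UAS-bla cells, 2500/well, were stimulated with 9-cis-RA at 500 or 100 nM final alongside test compound for 18 h at 37 C.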

[3] = S16 Schwann cell PMP22 intronic element beta-lactamase assay (AID 624044); conditions: S16 rat Schwann cells, PMP22 element beta-lactamase FRET, 24 h; measured here: 530 nm viability channel
Procedure, shortened: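 Beta-lactamase reporter under a PMP22 intronic regulatory element in stable S16 rat Schwann cells; 24 h compound exposure. 460 nm blue signal normalized between DMSO (0%) and potassium clavulanate, with 535 nm FRET tracking viability; curves classed by r2 and response.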

[4] = qHTS drug screen for cell cycle checkpoint inhibitors in PARPi-resistant BRCA-mutant ovarian cancer cell lines. (AID 1963452); conditions: PEO1/OlaR viability, CellTiter-Glo luminescence, 96 h
Procedure, shortened: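 PEO1, PEO4 and PEO1/OlaR ovarian cancer cells, 600 per well, exposed 96 h at 37C to a dilution series. Viability read by CellTiter-Glo luminescence, normalized to DMSO and empty wells; activity summarized as Z-AUC.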

[5] = measured here: PEO1 parental viability

With `Nc1ncnc2c1ncn2[C@H]1CC[C@@H](CO)O1` the AC50 [1] was 50.1 µM [rising, single point], the max response [2] was 61.4% and the AC50 [3] was 1.58 µM [falling, full curve].
In the case of `CC(C)=CCC/C(C)=C/C=C/C(C)=C/C=C/C(C)=C/C=C/C=C(C)/C=C/C=C(C)/C=C/C=C(\C)CCC=C(C)C`, the AC50 [3] was 0.00158 µM [falling, full curve, poor fit].
For `CNS(=O)(=O)Nc1nccc(Cc2c(C)c3ccc(Oc4ncccn4)cc3oc2=O)c1F`, the AC50 [4, 5] was 6.16 µM [falling, partial curve].
For `CCN(CC)CCNC(=O)c1c(C)[nH]c(/C=C2/C(=O)Nc3ccc(-c4csc(-c5ccccc5)n4)cc32)c1C`, the AC50 [4, 5] was 24.5 µM [falling, single point] and the AC50 ([4]; measured here: PEO4 viability) was 4.36 µM [falling, full curve].
With `Cc1cc(C)c(CNC(=O)c2cc(-c3ccc(CN4CCOCC4)cc3)cc3c2cnn3C2CCCC2)c(=O)[nH]1` the AC50 [4, 5] was 1.95 µM [falling, partial curve, poor fit] and the AC50 ([4]; measured here: PEO4 viability) was 27.5 µM [falling, single point].
For `Cc1ccccc1C(=O)Nc1ccc(C(=O)N2CCCC(O)c3cc(Cl)ccc32)c(C)c1` (stereo unspecified), the AC50 [4, 5] was 0.0138 µM [rising, full curve, poor fit].
In the case of `CC1=C(c2ccc(O)cc2)[C@H](c2ccc(OCCN3CCCCC3)cc2)Oc2cc(O)ccc21`, the AC50 [4, 5] was 24.5 µM [falling, single point] and the AC50 ([4]; measured here: PEO4 viability) was 24.5 µM [falling, single point].
In the case of `CC(C)NC(=O)C1CCC(n2c(NC(=O)c3ccc(F)cc3)nc3ccc(CN4CCC(C(C)(C)O)CC4)cc32)CC1` (stereo unspecified), the AC50 ([4]; measured here: PEO4 viability) was 6.01 µM [falling, partial curve].
For `Cc1c(F)cccc1NC(=O)Nc1ccc(Cl)c(S(=O)(=O)[C@H]2CCCNC2)c1O`, the AC50 [4, 5] was 13.8 µM [rising, partial curve, poor fit] and the AC50 ([4]; measured here: PEO4 viability) was 9.77 µM [rising, partial curve, poor fit].
For `COc1cc(F)ccc1-c1ncnc(Nc2cccc(CS(C)(=N)=O)c2)n1` (stereo unspecified), the AC50 [4, 5] was 1.23 µM [falling, full curve] and the AC50 ([4]; measured here: PEO4 viability) was 1.38 µM [falling, full curve].
In the case of `C/C(=N\NC(=O)c1cccc(S(=O)(=O)N2CCOCC2)c1)c1cc(Cl)ccc1O`, the AC50 [4, 5] was 1.1 µM [falling, full curve] and 1.55 µM [falling, full curve] and the AC50 ([4]; measured here: PEO4 viability) was 692 nM [falling, full curve, poor fit] and 1.38 µM [falling, full curve].
In the case of `O=C(O)C1=CC(O)C(O)[C@H](O)C1` (stereo partly specified), the AC50 ([4]; measured here: PEO4 viability) was 1.23 µM [falling, partial curve, poor fit].
In the case of `CCCNC(=O)Nc1ccc(Oc2ncnc3cc(OC)c(OC)cc23)cc1Cl`, the AC50 [4, 5] was 0.195 µM [rising, full curve, poor fit].
With `Cc1ccc(NC(=O)Nc2cc(C(F)(F)F)ccc2F)cc1Nc1ccc2c(c1)NC(=O)/C2=C\c1ccc[nH]1` the AC50 [4, 5] was 27.5 µM [falling, single point] and the AC50 ([4]; measured here: PEO4 viability) was 13.8 µM [falling, partial curve].
For `CC1(C)CN(C(=O)c2ccc(-c3cccc4nc(NC(=O)C5CC5)nn34)cc2)C1`, the AC50 ([4]; measured here: PEO4 viability) was 0.549 µM [rising, full curve, poor fit].
For `Cn1c(=O)c2c(ncn2CC2OCCO2)n(C)c1=O`, the AC50 ([4]; measured here: PEO4 viability) was 0.0389 µM [rising, full curve].
For `C/C(O)=C(\C#N)C(=O)Nc1ccc(C(F)(F)F)cc1`, the AC50 [4, 5] was 6.92 µM [falling, partial curve, poor fit].
With `CNC(=O)c1cccc2cc(Oc3ccnc4cc(OCC5(N)CC5)c(OC)cc34)ccc12` the AC50 [4, 5] was 24.5 µM [falling, single point] and the AC50 ([4]; measured here: PEO4 viability) was 13.8 µM [falling, partial curve].
In the case of `CC[C@H](NC(=O)[C@H](C)NC)C(=O)N1C[C@@H](O)C[C@H]1Cc1c(-c2[nH]c3cc(F)ccc3c2C[C@@H]2C[C@H](O)CN2C(=O)[C@H](CC)NC(=O)[C@H](C)NC)[nH]c2cc(F)ccc12`, the AC50 ([4]; measured here: PEO4 viability) was 6.16 µM [falling, full curve, poor fit].
For `OC[C@H]1OC(O)C[C@@H](O)[C@H]1O` (stereo partly specified), the AC50 ([4]; measured here: PEO4 viability) was 3.47 µM [falling, partial curve, poor fit].
For `CN1C[C@@H]2c3ccccc3Oc3ccc(Cl)cc3[C@H]2C1`, the AC50 ([4]; measured here: PEO4 viability) was 17.4 µM [falling, single point].

Source: PubChem BioAssay (NCATS)
